Laboratory results reported in patent US20230210866A1 (priority 2020, published 2023).
At least one compound was matched to its structure with a doubt left.

Tested on: SARS-CoV-2 (Wuhan-like strain)
Experiment: A549-ACE2 cells infected with SARS-CoV-2, viral titre in supernatant over time by RT-PCR
Format: cell-based
Settings: A549-ACE2, MOI 10^-1 and 10^-2, single treatment 1 hpi, diltiazem 45 µM or remdesivir 5 µM, 24-96 hpi
From the text: The cells of the cell line A549 are human alveolar basal epithelial cells derived from adenocarcinoma. This cell line is used as a model for the study of lung cancer, but also as target cells for infectious viruses targeting the respiratory tract. These cells were subsequently modified to express the ACE2 receptor, via which the SARS-CoV-2 virus penetrates into the hosts cells. This cell line A549-ACE2 was obtained from Creative Biogene (USA).
The experimental protocol is the following: • Seeding of the A549-ACE2 cells, • 24 hours after infection of the A549-ACE2 cells with a Wuhan-like strain of SARS-CoV-2 (MOI 10^-1 and 10^-2), • 1 hour post infection (pi), the cells are treated with 45 uM diltiazem. • The supernatants are sampled at 24 hours, 48 hours, 72 hours and 96 hours after the infection for a viral quantification by RT-PCR.
The incubation media used are the following: • Seeding medium: DMEM 1 g/L glucose (Glc), 200 mM L-Glutamine (L-Glu), […] penicillin/streptomycin (P/S), 10% foetal calf serum (FCS) • Infection medium: DMEM 1 g/L Glc, 200 mM L-Glu, 104 U P/S, 0% FCS • Treatment medium: DMEM 1 g/L Glc, 200 mM L-Glu, 104 U P/S, 2% FCS

Compound: CCC(CC)COC(=O)[C@H](C)N[P@](=O)(OC[C@H]1O[C@@](C#N)(c2ccc3c(N)ncnn23)[C@H](O)[C@@H]1O)Oc1ccccc1 [Remdesivir, remdesivir]
- Inhibition of the viral titre in the supernatant over time (% of untreated): same level of inhibition of the viral titre
